Laboratory results as given in PubChem BioAssay AID2685 (National Center for Advancing Translational Sciences (NCATS), 2010).
Screen size: about 320,000 compounds; about 2,100 (0.66%) were called active. Calls follow the shape of the dose curve; as a rule, active = well fitted inhibition curve with a large enough effect in the signal ratio, with a control signal flat (not every such curve was filed as active); inconclusive = small, poorly fitted or top-dose-only effect, or effect the other way, or a change in a side signal; inactive = flat fitted curve, though single readings scatter; the % refers to the signal ratio. The inconclusive results got no clear call from the source. Potencies of inconclusive entries are doubtful fits and often do not repeat.

assay: qHTS Assay for Lipid Storage Modulators in Drosophila S3 Cells; conditions: BODIPY lipid droplet fluorescence, 18-24 h, cells fed with added oleic acid; lipid storage change, negative = inhibition: at 46.1 µM (top of the series) unless noted
Outline: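 Drosophila S3 cells loaded with oleic acid (400 uM, as added) and compounds at several concentrations; lipid droplets imaged by 488-nm laser-scanning cytometry, 500–530 nm intensity and object ratio to cell channel. Percent activity normalized to 20 uM Triacsin C.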
% is scaled to controls: 0 for no effect and ±100 for the full control effect; potency is read from the fitted curve at half-maximal effect.

Lipid storage change, negative = inhibition, inconclusive:
CCCCCn1c(NC(=O)c2ccco2)c(S(=O)(=O)c2ccc(C)cc2)c2nc3ccccc3nc21 4.95%
CCn1cc(CCC(=O)NC(C)c2ccccc2)c2ccccc21 (stereo not given) -8.65%
Cc1ccc(N2C(=O)N(CC(=O)Nc3ccc(C)cc3[N+](=O)[O-])C(=O)C2C)cc1 (stereo not given) 37.2%
OCc1ccccc1OCCCN1CCC(Cc2ccccc2)CC1 -22.2%
CN1CCc2c(sc3c2C(=O)NC(c2ccccn2)N3)C1 (stereo not given) 1.43%
COCCn1nnnc1CN(CCc1ccc(OC)c(OC)c1)Cc1cc2ccc(C)cc2[nH]c1=O 94.6%
O=[N+]([O-])c1ccc(CSc2nnc(Cc3ccccc3)o2)cc1 17.1%
c1ccc(CC2CCN(Cc3nc(-c4ccccc4)no3)CC2)cc1 114%
Cc1cc(Br)ccc1NC(=O)CN(C)C(=O)CN1C(=O)NC(C)(C2CC2)C1=O (stereo not given) 11.6%
COc1cccc(C(=O)C2CCCN(Cc3c(C)n(C)n(-c4ccccc4)c3=O)C2)c1 (stereo not given) -5.76%
Cc1ccc(-n2ncc(Br)c(Br)c2=O)cc1 -17.2%
O=C(CCN1C(=O)c2ccccc2S1(=O)=O)Nc1cccc2ccccc12 18.4%

Part of the list above in order of count of non-hydrogen atoms, rising:
Lipid storage change, negative = inhibition, inconclusive:
O=[N+]([O-])c1ccc(CSc2nnc(Cc3ccccc3)o2)cc1 17.1%
c1ccc(CC2CCN(Cc3nc(-c4ccccc4)no3)CC2)cc1 114%
COc1cccc(C(=O)C2CCCN(Cc3c(C)n(C)n(-c4ccccc4)c3=O)C2)c1 (stereo not given) -5.76%

Next part.

Potency, inconclusive:
O=C(Cc1ccccc1)N1CCC(c2nc(-c3ccc(F)cc3)no2)CC1 11.6 µM [activator, single point]
COc1cc2c(cc1OC)C(c1ccc(SC)cc1)CC(=O)N2 (stereo not given) 29.1 µM [falling, single point]
COc1cccc(N2CCN(C(=O)CC(C)(C)CC3=NS(=O)(=O)c4ccccc4N3)CC2)c1 14.6 µM [falling, partial curve, poor fit]
COCCCNC(=O)c1c(NC(=O)C2COc3ccccc3O2)sc2c1CCCC2 (stereo not given) 0.0184 µM [falling, full curve, poor fit]
CC(C)(Cc1ccc(O)cc1)NC(=O)c1ccccc1 0.0164 µM [activator, single point]
Cc1ccccc1C(=O)Nc1cc(NC(=O)c2ccccc2C)cc(C(=O)O)c1 6.51 µM [activator, single point]
Cc1nn(-c2ccccc2)c(Oc2ccc(F)cc2)c1/C=N/n1cnnc1 4.11 µM [falling, partial curve, poor fit]
O=C(N1CCN(c2ccccc2)CC1)C1(S(=O)(=O)c2ccc(Cl)cc2)CC1 0.58 µM [activator, single point]
